The filed quantity is “Percent Effect” (%).
How 0% and 100% were set is not recorded. Most values in the screen are low, and negative values occur.
The compounds are a random part of those screened.
Two or more numbers in one place are separate tests of the same structure; such repeats can differ widely.
A dash means the value is not listed here; it may have been measured.

Chains of the proteins cited; added tags and fusions are not shown. Residues count along the entry.
UniProt P9WPC5, whole entry: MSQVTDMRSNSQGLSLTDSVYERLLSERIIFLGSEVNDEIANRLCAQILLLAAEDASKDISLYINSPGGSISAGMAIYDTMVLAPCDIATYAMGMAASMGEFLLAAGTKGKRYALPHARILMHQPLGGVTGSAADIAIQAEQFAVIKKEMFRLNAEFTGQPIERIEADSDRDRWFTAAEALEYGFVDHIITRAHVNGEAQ
UniProt P9WPC3, whole entry partner: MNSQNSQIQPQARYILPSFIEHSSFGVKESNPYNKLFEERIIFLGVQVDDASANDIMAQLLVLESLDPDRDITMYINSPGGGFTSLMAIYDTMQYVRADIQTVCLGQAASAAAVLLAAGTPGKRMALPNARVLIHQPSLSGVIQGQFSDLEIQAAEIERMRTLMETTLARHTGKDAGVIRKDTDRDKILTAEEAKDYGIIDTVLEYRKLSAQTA
UniProt Q8IDJ8, 1-583: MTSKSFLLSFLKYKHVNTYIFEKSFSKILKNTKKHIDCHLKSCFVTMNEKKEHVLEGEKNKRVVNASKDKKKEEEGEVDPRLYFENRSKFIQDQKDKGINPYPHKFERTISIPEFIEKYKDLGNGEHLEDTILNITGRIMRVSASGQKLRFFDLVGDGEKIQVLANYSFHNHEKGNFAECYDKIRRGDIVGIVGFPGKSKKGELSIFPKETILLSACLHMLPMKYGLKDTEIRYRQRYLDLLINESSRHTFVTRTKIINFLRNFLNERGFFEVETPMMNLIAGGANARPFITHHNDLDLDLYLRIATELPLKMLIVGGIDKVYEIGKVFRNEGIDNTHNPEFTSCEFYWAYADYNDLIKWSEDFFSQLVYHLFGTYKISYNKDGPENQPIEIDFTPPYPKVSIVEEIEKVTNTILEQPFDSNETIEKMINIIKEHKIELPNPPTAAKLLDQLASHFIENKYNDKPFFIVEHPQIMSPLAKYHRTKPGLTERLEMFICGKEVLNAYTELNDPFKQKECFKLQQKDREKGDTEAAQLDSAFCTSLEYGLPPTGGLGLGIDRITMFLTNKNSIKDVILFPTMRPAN

Leishmania in macrophages: 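Cell assay of Leishmania donovani living inside macrophages; the read-out is not stated. Tested at 30 µM. Direction is inferred from retests: higher values go with stronger inhibition. About 69,000 compounds were tested under these conditions; 1.5% (about 1,000) showed 50% or more at least once.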
ClpP1P2: 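ClpP1P2, Mycobacterium tuberculosis (UniProt P9WPC5 and UniProt P9WPC3). Protease assay of ClpP1P2, read by the AMC dye that it sets free. Concentration: 50 µM. Direction is inferred from only a few compounds that gave an IC50; most scored high, so higher reads as stronger inhibition. Most other retested compounds had strongly negative values. About 69,000 compounds were tested under these conditions; 0.015% (about 10) showed 50% or more at least once.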
Toxoplasma: 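Assay of Toxoplasma gondii numbers, read through their beta-galactosidase reporter with a colour substrate. Compounds at 10 µM. The record gives no direction; the compounds picked for IC50 retests had high values, so higher reads as fewer parasites. Size under these conditions: about 67,000 compounds, about 260 of them at 50% or above in at least one test.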
PfKRS1: 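Lysine-tRNA ligase, Plasmodium falciparum 3D7 (UniProt Q8IDJ8). Enzyme assay of the cytosolic lysyl-tRNA synthetase in 384-well plates, read by luminescence. Compounds at 30 µM. Direction is inferred from only a few compounds that gave an IC50; most scored high, so higher reads as stronger inhibition. Of about 69,000 compounds tested this way, about 49 (0.071%) reached 50% or more in at least one test.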

| # | structure | Leishmania in macrophages | ClpP1P2 | Toxoplasma | PfKRS1 |
|---|---|---|---|---|---|
| 1 | `COc1ccccc1-c1ccc(C2CCCN(C(C)=O)C2)nc1` (configuration not stated) | 38.11% | -1.798% | 10% | 0.3132% |
| 2 | `O=C(O)C(F)(F)F.O=C(O)C(F)(F)F.O=C(c1ccncc1)N1CC2(CCNCC2)c2cc(Cl)ccc21` | 6.108% | - | -36.29% | - |
| 3 | `O=C(O)C(F)(F)F.O=C(O)C(F)(F)F.c1cc(CN2CCCn3cnc(COCC4CC4)c3C2)ccn1` | 2.311% | - | 7.02% | - |
| 4 | `Cc1cc(CNC(=O)Nc2ccc(C(=O)NC3CC3)cc2)no1` | -2.917% | -5.586% | -1.661% | 4.566% |
| 5 | `CN1CCCN(C(=O)c2nc3c(o2)CN(C(=O)c2cccnc2)C3)CC1` | - | -5.362% | - | 7.679% |
| 6 | `COc1ccccc1OC1CCN(c2nc(N)nc3[nH]cnc23)CC1` | 22.39% | 4.21% | 8.834% | 6.897% |
| 7 | `CCCN1CCC(NCc2cccc(CN3CCOC(C)C3)c2)CC1` (configuration not stated) | -13.08% | 3.43% | -38.99% | -6.079% |
| 8 | `CC(C)n1ncc2c1NC(=O)CC21C(=O)Nc2c(Cl)cc(Cl)cc21` (configuration not stated) | 7.124% | 0.8552% | -0.2391% | -0.1516% |
| 9 | `O=C(O)C(F)(F)F.O=C(c1cc[nH]n1)N1CCC(F)(F)C2(CCN(c3ccccn3)C2)C1` (configuration not stated) | -4.284% & -1.028% | - | -37.58% | - |
| 10 | `CN(CCO)CC1COCCN1C(=O)C1(c2cccs2)CCCC1.O=CO` (configuration not stated) | 31.73% | - | -0.8218% | - |
| 11 | `CC(C)c1noc(CN2CCN(C(=O)c3cccc(F)c3)CC2)n1` | 20.79% | -13.02% | -20.29% | 1.11% |
| 12 | `CNC(=O)c1cccc(Nc2cnn(C)c2)c1` | -20.35% | 5.449% | 0% | 0.3849% |
| 13 | `CN1CCN(C(=O)c2cc(NC(=O)c3ccccc3)n(C)n2)CC1` | -11.52% | 11.14% | 6.586% | 1.502% |
| 14 | `[H][C@@]12CCN(C(=O)Cc3cccc(OC)c3)[C@]1([H])CCC(=O)N2CC` | 14.92% & 9.661% | - | 0.8189% | - |
| 15 | `[H][C@]12CC[C@]([H])(CN(Cc3ccccc3)C1)N(C(=O)CCc1cnn(C)c1)C2` | -4.588% | - | -2.21% | - |
| 16 | `C[C@@H]1CN(CCC(=O)NCc2ccccc2Cl)C[C@@]1(O)C1CC1` | 3.721% | -1.644% | -6.866% | 10.34% |
| 17 | `CCOCC(=O)N1CCc2c(CN(C)C)nn(C(C)C)c2C1.O=C(O)C(F)(F)F` | 14.37% | - | -4.369% | - |
| 18 | `CCC(C)(C)C1CCCN1C(=O)c1coc(S(=O)(=O)NC)c1` (configuration not stated) | -34.12% | -5.065% | 4.162% | -1.153% |
| 19 | `CCOc1ccc(CC(=O)N2CCN(c3nccn3CC)CC2)cc1.Cl` | 20.91% | - | -5.586% | - |
| 20 | `COc1cccc(C(=O)N2CCc3nc(C4CCCN4)ncc3C2)c1.Cl` (configuration not stated) | 14.62% & 16.14% | - | -24.35% | - |
| 21 | `Cc1cc(N)nc(C2(C)CCCN2C(=O)Cc2ccc(F)cc2)n1` (configuration not stated) | -5.63% | -1.648% | -8.034% | 0.3039% |
| 22 | `Cc1noc(C)c1CN(C)C(=O)CCn1c(=O)n(C)c2ccccc21` | 50.75% | 0.01563% | -4.728% | 2.298% |
| 23 | `CCC[C@H]1CN(S(=O)(=O)N(C)Cc2ccccc2)C[C@@H]1N` | 22.67% | -6.133% | 22.12% | 4.182% |
| 24 | `CN(C)C(CNC(=O)NCc1ccco1)c1cccs1` (configuration not stated) | 30.57% | 10.07% | 3.76% | 0.8797% |
| 25 | `Cc1ccnc(OC[C@]23COC[C@H]2CN(C(=O)c2ncccn2)C3)n1` | - | 5.072% | - | 0.3936% |
| 26 | `Fc1ccc(CN2CCc3ncnc(C4CC4)c3CC2)cc1.O=C(O)C(F)(F)F` | -4.532% | - | -5% | - |
| 27 | `Cc1nc(C)n(C2CCCN(C(=O)c3cc(C(N)=O)cs3)C2)n1` (configuration not stated) | -11.8% | 3.748% | 7.255% | -0.4597% |
| 28 | `Cc1nn(C)c(N(C)C)c1CNC1CCOc2c(Cl)cccc21` (configuration not stated) | 18.32% | -7.34% | 18.03% | -1.99% |
| 29 | `CN[C@@H](C)C(=O)N(Cc1cccc(C)c1)Cc1ccccc1OC` | 82.29% | -2.714% | 8.139% | -0.1394% |
| 30 | `O[C@]1(c2ccccn2)CC[C@@H]2CN(Cc3cccc4ncccc34)C[C@@H]21` | - | 10.58% | - | -0.2296% |
| 31 | `O=C(O)C(F)(F)F.[H][C@@]12CCN(C(=O)c3cocn3)C[C@]1(COc1ncccc1F)CCO2` | 22.85% | - | 9.955% | - |
| 32 | `CCCS(=O)(=O)NC1CCN(c2cccc(F)c2C#N)CC1` | -5.884% | -0.5821% | -6.898% | 9.12% |
| 33 | `Cc1cc(C(=O)N2CCNC(=O)CC2)c(C)n1CC(F)(F)F` | -24.62% | -4.635% | 6.665% | 0.8777% |
| 34 | `COc1ccc(Cl)cc1CS(=O)(=O)Cc1nc(C2CC2)no1` | 28.37% | -0.4102% | -44.74% | 3.988% |
| 35 | `CC(C)NC(=O)NCc1cc(-c2ccco2)n(CC(F)(F)F)n1` | 9.297% & -0.4026% | 7.653% | -1.451% | 3.242% |
| 36 | `O=C(O)C1(Oc2ccc3c(c2)OCO3)CCN(C2CCOCC2)CC1` | 9.291% | -5.9% | 5.126% | -2.151% |
| 37 | `CC(C)N1CCC2(CC1)C(=O)N(c1cccnc1)c1c(F)cccc12` | - | -13.43% | - | 3.546% |
| 38 | `O=C(O)C(F)(F)F.[H][C@@]12CCN(c3cnccn3)C[C@]1([H])CN(C(=O)CC(C)C)C2` | 11.79% | - | 2.228% | - |
| 39 | `Cc1nn(C)c2c(NCCn3cccn3)ncnc12` | 10.82% | -1.266% | 21.78% | 2.662% |
| 40 | `Cc1cccc(N2CCC3(CCN(C(=O)c4cccnc4)CC3)C2)n1.O=C(O)C(F)(F)F.O=C(O)C(F)(F)F` | 35.15% | - | 3.623% | - |

The values are deposited in ChEMBL (CHEMBL3988442, “University of Dundee, Small-Polar-MMV Screening Library” (2021)).